{
  "source": "patent US20040018582A1",
  "about": "“Genes and gene products that confer susceptibility to vancomycin derivative antibiotics and methods and assays for identifying bifunctional glycopeptide antibiotics using same” (priority 2001, published 2004)",
  "tested_on": "mutant strains BE101, BE102, BE103 compared to wild-type BE100",
  "assay": "Comparison of antibiotic effectiveness in mutant (yfgL) strains versus wild-type strain",
  "assay_type": "cell-based, Escherichia coli",
  "settings": "mutants vs parent strain BE100, by MIC",
  "description": "The present inventions are directed to methods of identifying a compound having transglycosylase inhibitory activity. The method includes contacting the compound with cells having the wild type yfgL gene and then measuring the antibiotic effectiveness and contacting the compound with cells having the mutant yfgL gene and measuring the antibiotic effectiveness the compound.\nMICs were determined against strains grown in LB medium in a standard microdilution format.\nSome antibiotics, for example the β-lactams, show a decrease in their bactericidal effectiveness against slow-growing cells. E. Tuomanen et al., J. Gen. Microbiol. 132, 1297 (1986). […] R. Kerns et al., J. Am. Chem. Soc. 122, 12608 (2000).\nExamples of transpeptidase inhibitors include, but are not limited to, ampicillin, penicillin or cefoxitin (p-lactams). Compounds that inhibit cytoplasmic steps of peptidoglycan synthesis include, but are not limited to, fosfomycin and cycloserine.",
  "note": "For at least one compound, name, drawing or mass did not settle the structure.",
  "data": [
    {"smiles": "NC[C@H]1O[C@H](O[C@H]2[C@H](O)[C@@H](O[C@H]3O[C@H](CO)[C@@H](O)[C@H](N)[C@H]3O)[C@H](N)C[C@@H]2N)[C@H](O)[C@@H](O)[C@@H]1O", "note": "[kanamycin]", "values": [
      {"measurement": "resistance or sensitivity of the mutants", "value": "sensitive"}
    ]}
  ]
}
